Experimental data reported in article PMC6781437.
These are yes or no findings as the source states them, for the method shown. In cells and extracts the contact can be indirect. Some results given as binding are weak or reduced against the parent protein; the word gives no strength. For some of these results: Tags and fused reporters may be left off the sequences shown. Each block holds one binder with its values, some of them ahead of it.

Sequences of proteins named here, by UniProt entry; tags and fusion partners are left off. Residues count along the entry.
UniProt P29323, residues 19-1055: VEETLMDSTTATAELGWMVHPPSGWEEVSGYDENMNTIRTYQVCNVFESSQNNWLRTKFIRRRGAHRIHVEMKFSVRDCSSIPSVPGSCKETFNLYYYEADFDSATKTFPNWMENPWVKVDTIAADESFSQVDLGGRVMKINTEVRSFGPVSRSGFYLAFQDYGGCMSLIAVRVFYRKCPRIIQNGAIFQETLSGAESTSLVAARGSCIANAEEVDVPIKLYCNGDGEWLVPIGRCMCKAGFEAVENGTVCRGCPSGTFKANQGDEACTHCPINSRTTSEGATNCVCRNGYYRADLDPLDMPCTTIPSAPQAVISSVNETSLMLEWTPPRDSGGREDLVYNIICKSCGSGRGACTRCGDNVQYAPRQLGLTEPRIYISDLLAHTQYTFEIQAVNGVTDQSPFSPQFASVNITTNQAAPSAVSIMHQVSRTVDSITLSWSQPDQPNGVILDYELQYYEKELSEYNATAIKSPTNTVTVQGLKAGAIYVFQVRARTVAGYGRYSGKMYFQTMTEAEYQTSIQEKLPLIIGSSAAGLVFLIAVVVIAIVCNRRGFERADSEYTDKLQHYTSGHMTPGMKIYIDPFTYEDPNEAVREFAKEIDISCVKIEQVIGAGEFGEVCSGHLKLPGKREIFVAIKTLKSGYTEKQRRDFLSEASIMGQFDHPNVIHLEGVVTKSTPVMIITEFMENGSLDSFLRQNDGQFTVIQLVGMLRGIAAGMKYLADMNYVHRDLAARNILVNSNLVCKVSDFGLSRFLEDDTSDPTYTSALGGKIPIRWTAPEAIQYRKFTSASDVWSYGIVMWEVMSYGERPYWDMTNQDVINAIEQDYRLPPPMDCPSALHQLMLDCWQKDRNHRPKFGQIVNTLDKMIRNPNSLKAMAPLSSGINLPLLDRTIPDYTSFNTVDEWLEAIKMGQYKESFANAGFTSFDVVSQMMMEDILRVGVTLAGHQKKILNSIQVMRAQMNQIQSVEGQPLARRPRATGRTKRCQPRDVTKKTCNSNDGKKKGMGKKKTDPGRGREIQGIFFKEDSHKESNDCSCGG
UniProt P54763, residues 19-986: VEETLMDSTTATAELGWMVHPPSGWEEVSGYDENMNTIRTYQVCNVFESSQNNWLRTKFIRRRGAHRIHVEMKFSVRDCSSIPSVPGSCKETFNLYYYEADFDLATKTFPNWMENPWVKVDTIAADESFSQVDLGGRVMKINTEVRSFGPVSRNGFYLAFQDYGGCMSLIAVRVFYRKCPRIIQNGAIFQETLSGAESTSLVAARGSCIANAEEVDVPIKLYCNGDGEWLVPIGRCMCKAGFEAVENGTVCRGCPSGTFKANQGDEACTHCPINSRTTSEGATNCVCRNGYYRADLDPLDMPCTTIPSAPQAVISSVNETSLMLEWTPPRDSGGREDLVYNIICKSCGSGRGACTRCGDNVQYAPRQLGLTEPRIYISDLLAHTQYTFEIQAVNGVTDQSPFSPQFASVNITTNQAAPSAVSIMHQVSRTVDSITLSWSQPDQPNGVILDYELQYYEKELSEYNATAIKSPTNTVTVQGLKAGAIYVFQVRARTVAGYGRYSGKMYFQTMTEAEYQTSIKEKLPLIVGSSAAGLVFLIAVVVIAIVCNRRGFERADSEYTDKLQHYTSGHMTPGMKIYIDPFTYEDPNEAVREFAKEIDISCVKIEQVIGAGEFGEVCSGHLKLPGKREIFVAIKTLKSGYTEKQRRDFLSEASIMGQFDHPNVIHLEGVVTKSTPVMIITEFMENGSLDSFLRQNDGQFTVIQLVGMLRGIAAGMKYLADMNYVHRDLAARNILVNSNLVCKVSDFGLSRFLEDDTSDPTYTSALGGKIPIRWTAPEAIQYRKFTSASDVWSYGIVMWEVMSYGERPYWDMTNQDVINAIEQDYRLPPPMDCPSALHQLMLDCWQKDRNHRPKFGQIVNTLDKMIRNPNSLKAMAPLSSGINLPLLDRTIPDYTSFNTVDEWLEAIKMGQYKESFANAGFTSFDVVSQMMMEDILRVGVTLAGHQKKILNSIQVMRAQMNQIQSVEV

Tests used:
[1] = molecular target: endogenous EphB2 (human (endogenous in U251)) (UniProt P29323); assay: co-IP; U251 cells cocultured with control GFP+ or ephrinB1ΔC-GFP+ HeLa cells for 30 min; lysates immunoprecipitated with anti-EphB2 antibodies; endogenous proteins
[2] = molecular target: full-length Flag-EphB2 (murine) (mouse) (UniProt P54763); assay: co-IP; Flag-EphB2 precipitated with anti-FLAG M2-agarose from lysates of transfected HeLa cells (25 mM Hepes pH 7.4, 150 mM NaCl, 1% Triton X-100; at least 3 h at 4°C), Western blot; cells untreated, treated with preclustered Fc or ephrinB1-Fc, cocultured with ephrinB1ΔC donor HeLa cells, co-expressing GFP-Tiam2ΔN or GFP, or treated with DMSO or Dyngo-4a

binding [1]: binds | binding [2]: binds
B1: endogenous Gulp1 (protein, UniProt Q9UBP9 1-304)
chain: MNRAFSRKKDKTWMHTPEALSKHFIPYNAKFLGSTEVEQPKGTEVVRDAVRKLKFARHIKKSEGQKIPKVELQISIYGVKILEPKTKEVQHNCQLHRISFCADDKTDKRIFTFICKDSESNKHLCYVFDSEKCAEEITLTIGQAFDLAYRKFLESGGKDVETRKQIAGLQKRIQDLETENMELKNKVQDLENQLRITQVSAPPAGSMTPKSPSTDIFDMIPFSPISHQSSMPTRNGTQPPPVPSRSTEIKRDLFGAEPFDPFNCGAADFPPDIQSKLDEMQEGFKMGLTLEGTVFCLDPLDSRC

binding [2]: binds weakly
B2: GFP-Gulp1 fusion protein (full-length mouse Gulp1) (protein, UniProt Q8K2A1 1-304)
chain: MNRAFSRKKDKTWMHTPEALSKHYIPYNAKFLGSTEVEQPKGTEVVRDAVRKLKFARHIKKSEGQKIPKVELQISIYGVKILEPKTKEVQHNCQLHRISFCADDKTDKRIFTFICKDSESNKHLCFVFDSEKCAEEITLTIGQAFDLAYRKFLESGGKDVETRKQIAGMQKRIQDLETENMELKNKVQDLESRLRTTQVSTSPAHGVTVMSPSTDIFDMIPFSPISHQSPTSARNGTQLPPIPSRSAETKRDLFGAEPFDPFNCGSGDFPPDIQSKLDEMQEGFKMGLTLEGTVFCLDPLDSRC

binding [2]: binds
B3: full-length myc-Gulp1 (protein, UniProt Q8K2A1 1-304)
chain: B2 chain
